From patent US20100119478A1
No constants are given. Whether binding was seen depends on the method and setting. Some binding calls cover weakened binding; strength is not graded here.

By UniProt entry, the sequences of proteins in these tests, tags left out. Residues count along the entry.
UniProt P14844, residues 24-148: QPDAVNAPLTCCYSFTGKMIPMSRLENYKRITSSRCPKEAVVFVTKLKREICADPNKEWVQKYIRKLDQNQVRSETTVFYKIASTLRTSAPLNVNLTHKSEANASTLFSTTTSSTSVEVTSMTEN
UniProt P10148, residues 24-148: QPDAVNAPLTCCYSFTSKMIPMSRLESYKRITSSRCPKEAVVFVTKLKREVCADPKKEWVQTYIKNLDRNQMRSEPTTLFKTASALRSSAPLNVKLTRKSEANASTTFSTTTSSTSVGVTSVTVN

Tests used:
rat MCP-1 N1pE (rat) [1] = target: rat MCP-1 N1pE (rat) (UniProt P14844); test: immunohistochemistry, rat brain sections
mouse MCP-1 N1pE (mouse) [2] = target: mouse MCP-1 N1pE (mouse) (UniProt P10148); test: Western blot of RAW 264.7 supernatant, antibody 1 µg/ml
mouse MCP-1 N1pE (mouse) [3] = target: mouse MCP-1 N1pE (mouse) (UniProt P10148); test: sandwich ELISA, capture rabbit anti mJE, detection by the clone
rat MCP-1 N1pE (rat) [4] = target: rat MCP-1 N1pE (rat) (UniProt P14844); test: immunohistochemistry (DAB) on rat brain sections after microinjection
mouse MCP-1 N1pE (mouse) [5] = target: mouse MCP-1 N1pE (mouse) (UniProt P10148); test: Western blot of RAW 264.7 cell culture supernatants, antibody 1 µg/ml
08 ZPDAVNAPL = target: T1, 08 ZPDAVNAPL; test: PepSpot membrane, peptide 1 µg/spot, antibody 1 µg/ml, AP-conjugated anti-mouse detection
T1 sequence (peptide, position 1, Z = pyroglutamate (pE), per p-0211): ZPDAVNAPL

[6] = target: T2, 15 Z…; test: as above
T2 sequence (peptide, position 1, Z = pyroglutamate (pE), per p-0211): ZPDALNVPST

mouse MCP-1 N1pE (mouse) [7] = target: mouse MCP-1 N1pE (mouse) (UniProt P10148); test: sandwich ELISA: rabbit anti mJE capture, recombinant mMCP-1 N1pE titrated, antibody clone with HRP anti-mouse for detection

- binding (rat MCP-1 N1pE (rat) [1]): binds
- binding (mouse MCP-1 N1pE (mouse) [2]): binds
- binding (mouse MCP-1 N1pE (mouse) [3]): binds
- binding (rat MCP-1 N1pE (rat) [4]): binds
- binding (mouse MCP-1 N1pE (mouse) [5]): binds
- binding (08 ZPDAVNAPL): binds
- binding [6]: binds
- binding (mouse MCP-1 N1pE (mouse) [7]): binds
B1: monoclonal antibody 332-4B8 (antibody, V domains shown)
VH: EVQLQQSGPELEKPGASVKISCKASGYSFTGYNMNWVKQNNGKSLEWIGNITPYYGSTSYNQKFKGRVTLTVDKSSSTAYMQLKSLTSEDSAVYFCLLWLRRGDYAMDYWGQGTSVTVSS
VL: DVLMTQTPLSLPVSLGDQASISCKSSQSIVHSNGNTYLEWYLQKPGQSPKLLIYKVFNRFSGVPDRFSGSGSGTDFTLKISRVEAEDLGVYYCFQGSHVPYTFGGGTKLEIKR
